These results are taken from article PMC3532225.

Construct, isoform or probe ends are uncertain for at least one entry. Where cells or extracts were used, other partners may take part. For some assays here: Weaker means in comparison with the reference protein, sequence or condition of that experiment.

One data set concerns the target STAT1 WT-HA (UniProt P42224). Nature of the data set: pull-down (oligoprecipitation, immunoblot). The settings on record: biotin, Lysate diluted 4-fold: 100 mM Tris-HCl pH 7.5, ~75 mM NaCl, 0.2 mM EDTA, 1 mM DTT, 1 mM NaF, Triton X-100, glycerol, 2 h binding (temperature not stated for this step), protein in a lysate after overexpression, protein details: HA, label: biotin.

The target in the next data set is STAT1 E705Q-HA (UniProt P42224). Put plainly: pull-down (oligoprecipitation, immunoblot). As to conditions: IFN-g + osmotic shock, SUMO-1 co-expressed; biotin; Lysate diluted 4-fold: 100 mM Tris-HCl pH 7.5, ~75 mM NaCl, 0.2 mM EDTA, 1 mM DTT, 1 mM NaF, Triton X-100, glycerol; 2 h binding (temperature not stated for this step); protein in a lysate after overexpression; protein details: HA; label: biotin.

The mark [1] stands for this setting: IFN-g + osmotic shock, SUMO-1 co-expressed.

As to “GGATCCCAACAGCTTGATTTCCCCGAAATGACGGCA (double strand) [Irf-1 GAS oligo]”, the binding result in the data set with STAT1 WT-HA (setting [1]) was “binds”; with STAT1 WT-HA (SUMO-1 overexpression vs none), “binds more weakly”; with STAT1 E705Q-HA it was “binds”.
In the case of “GGATCCTACTTTCAGTTTCATATTACTCTAAAT (double strand) [Gbp-1 GAS oligo]”, the binding result in the data set with STAT1 WT-HA (setting [1]) and with STAT1 E705Q-HA was “binds” each time.
